From article doi:10.1101/2024.06.28.601222
No constants are given. Whether binding was seen depends on the method and setting. In cells and extracts the contact can be indirect. Some entries that bind do so weakly or less than the wild type. Sequences can lack the tags named with a protein.

By UniProt entry, the sequences of proteins in these tests, tags left out. Where a name states a change or a piece, a line headed by the entry shows the natural chain unless it says otherwise.
UniProt Q39025: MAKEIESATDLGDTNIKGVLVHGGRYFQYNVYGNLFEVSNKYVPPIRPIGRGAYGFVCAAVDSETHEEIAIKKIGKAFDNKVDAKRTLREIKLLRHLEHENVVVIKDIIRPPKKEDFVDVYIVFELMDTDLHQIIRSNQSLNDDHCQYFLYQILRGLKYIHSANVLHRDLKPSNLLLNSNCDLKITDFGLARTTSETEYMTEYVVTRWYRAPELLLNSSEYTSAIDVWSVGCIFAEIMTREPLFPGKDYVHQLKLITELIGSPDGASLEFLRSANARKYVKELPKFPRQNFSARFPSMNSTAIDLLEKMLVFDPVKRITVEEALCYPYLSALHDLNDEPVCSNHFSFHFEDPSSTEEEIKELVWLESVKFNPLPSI

T1: GRF4 fused to the C-terminus part of Venus (from pBi2FC-C-GRF4-P2A:mTagBFP2) (Arabidopsis) (UniProt P46077)
T1 sequence: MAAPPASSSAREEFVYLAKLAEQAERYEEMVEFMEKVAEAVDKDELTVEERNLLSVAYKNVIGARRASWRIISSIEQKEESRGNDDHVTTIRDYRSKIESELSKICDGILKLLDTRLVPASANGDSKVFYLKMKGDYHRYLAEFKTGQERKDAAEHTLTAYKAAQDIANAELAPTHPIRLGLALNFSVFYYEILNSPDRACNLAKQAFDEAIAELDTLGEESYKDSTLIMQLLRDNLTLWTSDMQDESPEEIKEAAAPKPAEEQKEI

T2: GRF4 fused to the C-terminus part of Venus (from pBi2FC-C-GRF4-P2A:mTagBFP2) (Arabidopsis), P46077
T2 chain: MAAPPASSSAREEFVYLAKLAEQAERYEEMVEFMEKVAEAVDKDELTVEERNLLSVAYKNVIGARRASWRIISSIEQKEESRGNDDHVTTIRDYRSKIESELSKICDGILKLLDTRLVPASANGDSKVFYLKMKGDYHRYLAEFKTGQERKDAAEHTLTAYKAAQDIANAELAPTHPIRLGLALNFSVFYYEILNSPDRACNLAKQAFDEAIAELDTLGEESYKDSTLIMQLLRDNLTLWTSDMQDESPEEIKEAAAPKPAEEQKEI


Legend:
[1] = molecular target: T1, GRF4 fused to the C-terminus part of Venus (from pBi2FC-C-GRF4-P2A:mTagBFP2) (Arabidopsis); experiment: split reporter
[2] = molecular target: T2, GRF4 fused to the C-terminus part of …; experiment: split reporter; details: remark: other sources report otherwise

Molecule | binding [1] | binding [2]
MPK5 fused to the N-terminus part of Venus (from pBi2FC-N-MPK5-P2A:mCherry) (from UniProt Q39025 1-376) | binds | 
MPK6 fused to the N-terminus part of Venus (from pBi2FC-N-MPK6-P2A:mCherry), Q39026 1-395 (protein) MDGGSGQPAADTEMTEAPGGFPAAAPSPQMPGIENIPATLSHGGRFIQYNIFGNIFEVTAKYKPPIMPIGKGAYGIVCSAMNSETNESVAIKKIANAFDNKIDAKRTLREIKLLRHMDHENIVAIRDIIPPPLRNAFNDVYIAYELMDTDLHQIIRSNQALSEEHCQYFLYQILRGLKYIHSANVLHRDLKPSNLLLNANCDLKICDFGLARVTSESDFMTEYVVTRWYRAPELLLNSSDYTAAIDVWSVGCIFMELMDRKPLFPGRDHVHQLRLLMELIGTPSEEELEFLNENAKRYIRQLPPYPRQSITDKFPTVHPLAIDLIEKMLTFDPRRRITVLDALAHPYLNSLHDISDEPECTIPFNFDFENHALSEEQMKELIYREALAFNPEYQQ |  | binds
MPK8 fused to the N-terminus part of Venus (from pBi2FC-N-MPK8-P2A:mCherry) (protein, UniProt Q9LM33 1-589) MGGGGNLVDGVRRWLFQRPSSSSSSSSSNNNNNNHEQPIFNSSSFSSSSNPNHSANSGELIIEEDLDFSGLTLINVPKRNHLPMDPHKKGETEFFTEYGEANRYQIQEVVGKGSYGVVASAVDSHTGERVAIKKINDVFEHVSDATRILREIKLLRLLRHPDVVEIKHIMLPPSRREFRDIYVVFELMESDLHQVIKANDDLTPEHYQFFLYQLLRGLKYVHAANVFHRDLKPKNILANADCKLKICDFGLARVSFNDAPTAIFWTDYVATRWYRAPELCGSFFSKYTPAIDIWSVGCIFAEMLLGKPLFPGKNVVHQLDLMTDFLGTPPPESISRIRNEKARRYLSSMRKKQPVPFSHKFPKADPLALRLLERLLAFDPKDRASAEDALADPYFSGLSNSEREPTTQPISKLEFDFERKKLVKDDVRELIYREILEYHPQMLEEYLRGGDQLSFMYPSGVDRFKRQFAHLEENQGKPGAAGGGRSTALHRHHASLPRERVPAPNGETAEESSDVERRAAAAVASTLESEEADNGGGYSARNLMKSASISGSKCIGVQSKTDKEDTIAEEEDNETVAELTDKVASLHNS | binds | 
MPK12 fused to the N-terminus part of Venus (from pBi2FC-N-MPK12-P2A:mCherry) (protein, UniProt Q8GYQ5 1-372) MSGESSSGSTEHCIKVVPTHGGRYVQYNVYGQLFEVSRKYVPPIRPIGRGACGIVCAAVNSVTGEKVAIKKIGNAFDNIIDAKRTLREIKLLRHMDHENVITIKDIVRPPQRDIFNDVYIVYELMDTDLQRILRSNQTLTSDQCRFLVYQLLRGLKYVHSANILHRDLRPSNVLLNSKNELKIGDFGLARTTSDTDFMTEYVVTRWYRAPELLLNCSEYTAAIDIWSVGCILGEIMTGQPLFPGKDYVHQLRLITELVGSPDNSSLGFLRSDNARRYVRQLPRYPKQQFAARFPKMPTTAIDLLERMLVFDPNRRISVDEALGHAYLSPHHDVAKEPVCSTPFSFDFEHPSCTEEHIKELIYKESVKFNPDH | no binding | 
